The values that follow come from PMC10850505, “Molecular mechanism of specific HLA-A mRNA recognition by the RNA-binding-protein hMEX3B to promote tumor immune escape”.

Results are given in words; binding and its absence hold for the method and conditions named.

Test [1] has as its target hMEX3B tandem KH1/2 domains (residues 56-230) (human) (UniProt Q6ZN04). Briefly: SEC-MALS; Superdex 75 Increase 10/300 GL; 20 mM Bis-Tris pH 6.5, 150 mM NaCl, 2 mM DTT; room temperature; hMEX3B 2 mg/ml, apo and mixed with 12-nt RNA at 1:1.2; both purified. For orientation: In gel filtration, larger molecules generally elute earlier.
Test [2] shares this target. Briefly: SAXS; KH1/2 apo form and 12-nt RNA-bound form in solution; sample concentrations 1 to 5 mg/ml; beamline BL19U2, SSRF; both purified.

B1: hMEX3B tandem KH1/2 domains (residues 56-230) (domain or fragment, UniProt Q6ZN04 56-230)
chain: DSEPRKKSVNMTECVPVPSSEHVAEIVGRQGCKIKALRAKTNTYIKTPVRGEEPVFVVTGRKEDVAMARREIISAAEHFSMIRASRNKNTALNGAVPGPPNLPGQTTIQVRVPYRVVGLVVGPKGATIKRIQQQTHTYIVTPSRDKEPVFEVTGMPENVDRAREEIEAHIALRTG
B1: the binding entry in test [1] was “no binding (tested: 2 mg/ml)”; in test [2], “no binding (tested: 1 to 5 mg/ml)”.
